In the supplement of paper PMC10849652:
The list shows a part of the results.

What was measured:
Experiment in all cases: log2 fold change, soluble protein after heating vs DMSO (PISA); higher = thermal stabilisation; K562 lysate, 10 uM; active = over 0.2 and 3.5 SD of the protein, either way, in both replicates (recomputed)
erlotinib = compound: C#Cc1cccc(Nc2ncnc3cc(OCCOC)c(OCCOC)cc23)c1 [erlotinib]
Method in brief: (§1)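 Pellets of K562 cells were dounce-homogenised in PBS pH 7.4 with 1 mM MgCl2, and the crude extract was held at 1 mg/mL protein for a 30 min treatment with 10 μM compound. Aliquots were heated for 3 min over 48°C-58°C and pooled before NP-40 was added to 0.5% at 4°C. The supernatant from 21,000xg for 90 min was quantified by TMTpro 16plex LC-MS/MS with channel sums equalised. Values are reported from duplicates as log-two fold change in thermal stability relative to solvent controls.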

[1] = compound: C1=CC(=CC=C1C2=NC3=C(N2)C=C(C=C3)C(=O)N)OC4=CC=C(C=C4)Cl
Method in brief: as §1

[2] = compound: C1=CC2=NC=CN=C2C=C1/C=C/3\C(=O)NC(=O)S3
Method in brief: as §1

[3] = compound: C1=CC=C(C=C1)C2=NC(=C(N2)C3=CC=NC=C3)C4=CC(=C(C=C4)Cl)O
Method in brief: as §1

[4] = compound: C1CCN(C1)C(=O)NC2=CC=CC(=C2)NC3=NC=C(C(=N3)NCCC4=CN=CN4)Br
Method in brief: as §1

[5] = compound: C1CN(CCC1(CC2=CC=C(C=C2)Cl)N)C3=NC=NC4=C3C=CN4
Method in brief: as §1

IRAK-1-4 Inhibitor I = compound: C1COCCN1CCN2C3=CC=CC=C3N=C2NC(=O)C4=CC(=CC=C4)[N+](=O)[O-] [IRAK-1-4 Inhibitor I]
Method in brief: as §1

ibrutinib = compound: C=CC(=O)N1CCC[C@@H](n2nc(-c3ccc(Oc4ccccc4)cc3)c3c(N)ncnc32)C1 [ibrutinib]
Method in brief: as §1

[6] = compound: CC(=O)c1cnc2ccc(-c3cc(Cl)c(O)c(Cl)c3)nc2c1N[C@H]1CC[C@H](CN(C)C)CC1
Method in brief: as §1

ralimetinib = compound: CC(C)(C)Cn1c(N)nc2ccc(-c3[nH]c(C(C)(C)C)nc3-c3ccc(F)cc3)nc21 [ralimetinib]
Method in brief: as §1

[7] = compound: CC(C)(O)CC(=O)NCCn1ccc2ncnc(Nc3ccc(Oc4cccc(C(F)(F)F)c4)c(Cl)c3)c21
Method in brief: as §1

[8] = compound: CC(C)C1=C2N=C(C=C(N2N=C1)NCC3=CC=CC=C3)NCCCCCCN
Method in brief: as §1

[9] = compound: CC1=C(C(CC(=O)N1)C2=CC=C(C=C2)C(F)(F)F)C(=O)NC3=C(C=C4C(=C3)C=NN4)F
Method in brief: as §1

[10] = compound: CC1=C(C2=C(C=C1)C(=O)C3=CC=CC=C3N2CCCN)C
Method in brief: as §1

[11] = compound: CC1=C(C=C(C=C1)NC(=O)C2=CC(=CC=C2)C(C)(C)C#N)NC3=CC4=C(C=C3)N=CN(C4=O)C
Method in brief: as §1

[12] = compound: CC1=C(C=C(C=C1)NC(=O)C2=CC(=CC=C2)N(C)C)NC(=O)C3=CC=C(C=C3)O
Method in brief: as §1

[13] = compound: CC1=CC=C(C=C1)SC2=C3C=C(SC3=CN=C2)C(=O)N
Method in brief: as §1

[14] = compound: C/C(=N\NC(=O)C1=CC(=CC=C1)S(=O)(=O)N2CCOCC2)/C3=C(C=CC(=C3)Cl)O
Method in brief: as §1

[15] = compound: C1=CC2=C(C=CC(=C2)/C=C\3/C(=O)NC(=NCC4=CC=CS4)S3)N=C1
Method in brief: as §1

[16] = compound: C1=CC=C2C(=C1)C3=NNC4=CC=CC(=C43)C2=O
Method in brief: as §1

Measured: log2 fold change

PPP1R11 (UniProt O60927)
inactive: erlotinib -0.046 | [1] 0.015 | [2] 0.01 | [3] 0.004 | [4] 0 | [5] -0.03 | IRAK-1-4 Inhibitor I 0.132 | ibrutinib -0.037 | [6] 0.058 | ralimetinib 0.062 | [7] -0.021 | [8] -0.024 | [9] 0.1 | [10] 0.052 | [11] 0.059 | [12] -0.037 | [13] -0.01

PRDM15 (UniProt P57071)
inactive: [3] -0.212 | IRAK-1-4 Inhibitor I 0.026 | ralimetinib 0.011 | [7] -0.246 | [10] 0.18 | [12] 0.008

PRPF40B (UniProt Q6NWY9)
inactive: [11] -0.081

PPP6R3 isoform 2 (UniProt Q5H9R7)
inactive: erlotinib -0.04 | [1] 0.044 | [3] 0.02 | IRAK-1-4 Inhibitor I -0.032 | ralimetinib 0.043 | [7] -0.01 | [8] -0.032 | [9] 0.207 | [12] 0.081

PPP2CA (UniProt E7ESG8)
inactive: [9] 0.239

PPP1R3E (UniProt Q9H7J1)
inactive: erlotinib 0.005 | [1] 0.078 | [8] -0.005

PPP2CB (UniProt E5RHC1)
inactive: [2] -0.102 | [3] 0.096 | IRAK-1-4 Inhibitor I -0.058 | ibrutinib 0.118 | [6] 0.255 | ralimetinib -0.024 | [7] 0.17 | [9] 0.024 | [10] -0.301 | [11] -0.119 | [12] -0.084 | [13] 0.257

PPL (UniProt O60437)
inactive: [2] 0.506 | [4] -0.058 | [5] 0.009 | ibrutinib 0.028 | [9] 0.02 | [10] 0.368 | [11] 0.279

PPP2R5C isoform 2 (UniProt Q13362)
inactive: erlotinib 0.003 | [14] 0.044 | [1] 0.024 | [15] -0.046 | [2] 0.186 | [3] 0.024 | [16] 0.013 | IRAK-1-4 Inhibitor I 0.052 | ibrutinib -0.145 | ralimetinib -0.016 | [7] -0.02 | [8] 0.02 | [9] -0.012 | [10] 0 | [11] -0.155 | [12] 0.08

PRADC1 (UniProt Q9BSG0)
inactive: erlotinib -0.016 | [1] 0.027 | [2] 0.018 | [3] 0 | IRAK-1-4 Inhibitor I 0.017 | ibrutinib 0.026 | [6] -0.395 | ralimetinib -0.023 | [7] 0.041 | [8] -0.125 | [9] 0.026 | [10] -0.009 | [11] 0.072 | [12] 0.008 | [13] -0.023

PPP2R3B (UniProt Q9Y5P8)
inactive: [2] -0.073 | ibrutinib -0.323 | [6] -0.014 | [11] 0.049 | [13] 0.063

PRKX (UniProt P51817)
inactive: [14] 0.091 | [15] 0.523 | [2] 0.021 | [3] 0.04 | [16] -0.338 | [4] 0.433 | [5] 0.372 | IRAK-1-4 Inhibitor I 0.01 | ibrutinib 0.109 | [6] 0.053 | ralimetinib 0.057 | [7] -0.044 | [9] 0.077 | [10] -0.039 | [12] 0.061 | [13] 0.059

Quoted from the results shown (two entries):
PPP2R3B (UniProt Q9Y5P8)
inactive: [2] -0.073 | ibrutinib -0.323 | [6] -0.014 | [11] 0.049 | [13] 0.063

PRKX (UniProt P51817)
inactive: [14] 0.091 | [15] 0.523 | [2] 0.021 | [3] 0.04 | [16] -0.338 | [4] 0.433 | [5] 0.372 | IRAK-1-4 Inhibitor I 0.01 | ibrutinib 0.109 | [6] 0.053 | ralimetinib 0.057 | [7] -0.044 | [9] 0.077 | [10] -0.039 | [12] 0.061 | [13] 0.059

The listing continues.

PPP1R12C isoform 3 (UniProt Q9BZL4)
inactive: [2] -0.012 | [3] 0.095 | IRAK-1-4 Inhibitor I 0.069 | ibrutinib 0.1 | ralimetinib 0.019 | [7] -0.066 | [11] 0.009 | [12] 0.034

PPT2, A0A140T9Y1
inactive: [9] -0.142

PPP1R14A, A0A0B4J2A3
inactive: erlotinib -0.212 | [1] 0.122 | [6] -0.043 | [8] -0.254 | [13] 0.015

PPP1R7 (UniProt C9JD73)
inactive: [6] 0.066 | [13] 0.013

PPM1B isoform 2 (UniProt O75688)
inactive: [2] -0.021 | [3] -0.057 | [4] -0.084 | [5] 0.154 | IRAK-1-4 Inhibitor I -0.019 | ibrutinib -0.092 | [6] 0.075 | ralimetinib 0.064 | [7] 0.009 | [9] 0.061 | [10] 0.024 | [12] -0.15 | [13] -0.191

PPTC7 (UniProt Q8NI37)
inactive: [14] 0.203 | [15] 0.046 | [3] -0.019 | [16] -0.18 | IRAK-1-4 Inhibitor I 0.019 | ralimetinib -0.067 | [7] 0.25 | [10] 0.006 | [12] -0.002

PPME1 (UniProt Q9Y570)
inactive: erlotinib 0.129 | [1] 0.003 | [2] -0.09 | [4] -0.025 | [5] -0.033 | ibrutinib -0.038 | [6] -0.072 | [8] -0.238 | [10] -0.018 | [13] -0.077

PROSER3 (UniProt Q2NL68)
inactive: erlotinib -0.102 | [14] 0 | [1] 0.067 | [15] 0.187 | [16] -0.122 | [8] 0.011 | [11] -0.205

PPP1R7 isoform 2 (UniProt Q15435)
inactive: [3] 0.071 | IRAK-1-4 Inhibitor I 0.063 | [6] 0.225 | ralimetinib 0.057 | [7] 0.038 | [12] 0.056 | [13] -0.1

PRICKLE3 (UniProt O43900)
inactive: [2] 0.132 | [3] -0.345 | IRAK-1-4 Inhibitor I 0.181 | ibrutinib 0.174 | ralimetinib 0.068 | [7] 0.079 | [12] 0.149

PPP1R14C (UniProt Q8TAE6)
inactive: [14] 0.018 | [15] -0.092 | [2] -0.05 | [3] 0.001 | [16] 0.021 | [4] 0.052 | [5] -0.02 | IRAK-1-4 Inhibitor I -0.014 | ibrutinib 0.067 | [6] 0.007 | ralimetinib 0.057 | [7] 0.042 | [9] -0.028 | [10] -0.097 | [12] -0.123 | [13] 0.068

PRELID1 (UniProt Q9Y255)
inactive: [14] -0.095 | [15] -0.136 | [2] 0.044 | [3] -0.076 | [16] -0.117 | IRAK-1-4 Inhibitor I -0.015 | ibrutinib -0.012 | ralimetinib 0.103 | [7] -0.103 | [9] 0.005 | [11] -0.061 | [12] -0.074

PRNP (UniProt P04156)
inactive: erlotinib 0.277 | [1] -0.09 | [2] -0.126 | [3] 0.056 | IRAK-1-4 Inhibitor I -0.083 | ibrutinib -0.099 | [6] -0.034 | ralimetinib 0.046 | [7] -0.034 | [8] 0.116 | [9] 0.006 | [10] -0.093 | [11] -0.014 | [12] 0.03 | [13] 0.035

PRMT2 (UniProt P55345)
inactive: [14] -0.026 | [15] -0.075 | [2] -0.087 | [3] -0.174 | [16] 0.288 | [4] -0.076 | [5] -0.034 | IRAK-1-4 Inhibitor I 0.018 | ibrutinib -0.034 | [6] 0.103 | ralimetinib 0.011 | [7] 0 | [10] -0.152 | [12] -0.154 | [13] 0.017

PRG2 (UniProt P13727)
inactive: [4] -0.008 | [5] 0.093 | [6] 0.068 | [10] -0.099 | [11] 0.161 | [13] 0.05

PRDM2 (UniProt Q13029)
inactive: erlotinib 0.016 | [14] -0.028 | [1] 0.035 | [15] -0.019 | [2] 0.124 | [3] -0.058 | [16] 0.03 | IRAK-1-4 Inhibitor I -0.056 | ibrutinib 0.038 | [6] 0.051 | ralimetinib 0.013 | [7] -0.052 | [8] 0.078 | [10] -0.272 | [12] 0.028 | [13] 0.074

PREP (UniProt H0Y5Y0)
inactive: [6] -0.051 | [13] 0.029

PROSER3, A0A2R8Y8D9
inactive: [10] -0.016 | [11] -0.01

PPP6R3 isoform 6 (UniProt Q5H9R7)
inactive: [3] -0.038 | IRAK-1-4 Inhibitor I -0.051 | ralimetinib -0.07 | [7] -0.108 | [12] 0.092

PPM1J (UniProt Q5JR12)
inactive: [6] -0.005 | [13] -0.03

PRPF40A isoform 3 (UniProt O75400)
inactive: erlotinib 0.016 | [1] 0.045 | [3] -0.039 | [4] -0.091 | [5] -0.039 | IRAK-1-4 Inhibitor I -0.003 | [6] -0.028 | ralimetinib 0.03 | [7] -0.097 | [8] 0.014 | [12] 0.007 | [13] 0.092
